Test results from patent US20210340177A1, “BIOACTIVE PEPTIDES HAVING HIGH BINDING AFFINITY TO HUMAN MUSCULAR NICOTINIC ACETYLCHOLINE RECEPTOR” (priority 2020, published 2021).
Some entries share one result that the patent states for a list of compounds. At least one peptide structure holds a part that was inferred or is arguable (an end, a ring closure or a residue).

System: muscle cells
Format: cell-based
Conditions: 10 μM, incubation for 5 or 24 hours, p value <5%
Description: The efficacy of peptides V0083091A (KKYK; SEQ ID NO: 1) and V0083092A (KWKK; […]. Muscle cells were incubated or treated without (control) or with compounds, for example, peptides V0083091A and V0083092A, and contraction of the muscle cells was evaluated after incubation for 5 hours, after incubation for 24 hours, or after incubation for 24 hours followed by a washing step.

Lys-Lys-Tyr-Lys [Peptide V0083091A]
Inhibition of contraction of muscle cells, effect size: > 2
